{"source": "patent US9284325B2", "about": "“Spectinamides as anti-tuberculosis agents” (UNIVERSITY OF TENNESSEE RESEARCH FOUNDATION, priority 2009, dated 2016)", "note": "Counter-ions that a name gives are not always drawn. Some results were stated once for a whole list of compounds, not compound by compound."}
{"test_system": "mammalian ribosomes (Rabbit Reticulocytes)", "experiment": "Inhibition of mammalian protein synthesis in Rabbit Reticulocytes", "type": "biochemical", "conditions": "highest concentration tested 512 μg/mL", "units": {"IC50 inhibition of mammalian protein synthesis": "µg/mL"}}
{"smiles": "CN[C@@H]1[C@H](O)[C@H](NC)C2O[C@]3(O)C(OC2[C@H]1O)O[C@H](C)C[C@H]3NC(=O)Cc1cscn1", "note": "(stereo partly drawn) [Compound 1443, 3′-Dihydro-3′-deoxy-4(R)-(thiazol-4-yl)acetylamino spectinomycin trihydrobromide]", "IC50 inhibition of mammalian protein synthesis": "> 512"}
{"smiles": "CN[C@@H]1[C@H](O)[C@H](NC)C2O[C@]3(O)C(OC2[C@H]1O)O[C@H](C)C[C@H]3NC(=O)Cc1ccccn1", "note": "(stereo partly drawn) [Compound 1329, 3′-Dihydro-3′-deoxy-4(R)-(pyridin-2yl)acetylamino spectinomycin Dihydrochloride]", "IC50 inhibition of mammalian protein synthesis": "> 512"}
{"smiles": "CN[C@@H]1[C@H](O)[C@H](NC)C2O[C@]3(O)C(OC2[C@H]1O)O[C@H](C)C[C@H]3NC(=O)Cc1ccc(F)cn1", "note": "(stereo partly drawn) [Compound 1445, 3′-Dihydro-3′-deoxy-4(R)-(5-fluoropyridin-2-yl)acetylamino spectinomycin trihydrobromide]", "IC50 inhibition of mammalian protein synthesis": "> 512"}
